US8026257B2 (Bristol-Myers Squibb Company, priority 2007, dated 2011)
Where two headings read alike, the source gives them in different places. Structures were worked out from names or drawings and are uncertain.

Sequences of proteins named here, by UniProt entry; tags and fusion partners are left off.
UniProt P25103, whole entry: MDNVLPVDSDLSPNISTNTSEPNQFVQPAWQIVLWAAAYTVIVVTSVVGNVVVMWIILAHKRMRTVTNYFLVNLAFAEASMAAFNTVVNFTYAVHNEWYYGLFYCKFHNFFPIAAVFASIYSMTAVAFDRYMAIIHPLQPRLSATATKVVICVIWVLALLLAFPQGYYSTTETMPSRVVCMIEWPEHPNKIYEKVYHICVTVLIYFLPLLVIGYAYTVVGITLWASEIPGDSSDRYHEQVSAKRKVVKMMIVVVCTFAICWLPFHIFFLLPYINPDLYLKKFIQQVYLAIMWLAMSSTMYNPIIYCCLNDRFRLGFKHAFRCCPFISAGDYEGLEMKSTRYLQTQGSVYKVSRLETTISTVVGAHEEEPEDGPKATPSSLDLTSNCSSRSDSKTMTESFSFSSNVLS
UniProt P31645, whole entry: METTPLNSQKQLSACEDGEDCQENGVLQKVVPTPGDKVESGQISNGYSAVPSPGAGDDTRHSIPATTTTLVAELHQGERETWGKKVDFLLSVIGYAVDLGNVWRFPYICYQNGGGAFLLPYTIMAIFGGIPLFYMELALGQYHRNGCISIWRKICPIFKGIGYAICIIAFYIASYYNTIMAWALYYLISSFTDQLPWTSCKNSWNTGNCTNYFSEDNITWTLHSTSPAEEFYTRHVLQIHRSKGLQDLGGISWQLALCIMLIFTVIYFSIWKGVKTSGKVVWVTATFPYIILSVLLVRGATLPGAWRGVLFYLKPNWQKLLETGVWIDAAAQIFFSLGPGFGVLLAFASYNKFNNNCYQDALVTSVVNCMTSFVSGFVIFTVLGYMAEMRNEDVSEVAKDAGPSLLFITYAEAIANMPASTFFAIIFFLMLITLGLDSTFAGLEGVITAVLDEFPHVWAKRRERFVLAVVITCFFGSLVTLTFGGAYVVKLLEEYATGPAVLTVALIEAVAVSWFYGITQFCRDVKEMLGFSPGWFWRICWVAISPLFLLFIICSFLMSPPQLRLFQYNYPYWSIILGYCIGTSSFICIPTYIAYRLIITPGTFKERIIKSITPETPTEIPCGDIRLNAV

Assays:
NK-1 = NK-1 (Homo sapiens, UniProt P25103); test: NK1 radioligand binding assay ([125I]Substance P, U373 membranes); conditions: read-out: NK-1 IC50, U373 cell membranes, 200 pM [125I]Substance P, 1 hour at room temperature
Procedure: (§1) NK-1 Binding assay. Crude membrane suspensions were prepared for the NK1 and SERT radioligand binding assays from U373 cells or recombinant HEK-293 cells expressing hSERT, respectively. Cells were harvested from T-175 flasks as follows. The medium is removed from the flasks and the cells rinsed with HBSS without Ca and without Mg. The cells are then incubated for 5-10 minutes in 10 mM Tris-Cl, pH 7.5, 5 mM EDTA before the cells are lifted with a combination of pipetting and scraping, as needed. To prepare membranes, the cell suspension is collected into centrifuge bottles and homogenized for 30 seconds with a Polytron homogenizer. The suspension is centrifuged for 30 min@32,000×g, 4° C., then the supernatant is decanted and the pellet resuspended and homogenized in 50 mM Tris-Cl, pH 7.5, 1 mM EDTA for 10 seconds. The suspension is then centrifuged again for 30 min@32,000×g, 4° C. The supernatant is decanted and the pellet resuspended in 50 mM Tris-Cl, pH 7.5, 1 mM EDTA and briefly homogenized. […]
NK1 radioligand binding assay. […] The plates are air-dried overnight, 12 ul/well of MicroScint scintillation fluid added, and the plates counted in a Trilux.
(§2) Data analysis. […] The radioligand concentration chosen for each assay corresponds to the Kd concentration determined through saturation binding analysis for each assay.

hSERT = hSERT (Homo sapiens, UniProt P31645); test: SERT radioligand binding assay ([125I]RTI-55, HEK-hSERT membranes); conditions: read-out: SERT IC50, HEK-293 hSERT membranes, 260 pM [125I]RTI-55, 1 hour at room temperature
Procedure: as §1
SERT radioligand binding assay. […] The plates are air-dried overnight, 12 ul/well of MicroScint scintillation fluid added, and the plates counted in a Trilux.
as §2

SMILES	IC50 (NK-1; tested form: TFA)	IC50 (hSERT; tested form: TFA)	IC50 (NK-1)	IC50 (hSERT)
CN1CCC(COCc2cc(C(F)(F)F)cc3nc[nH]c23)(c2ccccc2)CC1	100 to 300 nM	0.01 to 100 nM	–	–
CC(OCC1(c2ccccc2)CCNCC1)c1cc(Cl)cc2cn(C)nc12 (racemic)	–	–	0.01 to 100 nM	0.01 to 100 nM
